Measured data: PubChem BioAssay AID504774 (Drosophila RNAi Screening Center, 2011)
The screen tested about 23,000 reagents; below is a random part of those that have a named target and a result. 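Values are quantile-normalised luminescence on an arbitrary scale; higher means more cells surviving MMS.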 The numbers tell different reagents against one gene apart. A plus sign joins genes that one reagent is predicted to hit. Further read-outs or replicates are left out here. No sequences are given here.

Purpose: 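Fly genes whose loss alters survival after alkylation damage to DNA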 (primary screen)
Cell system: Drosophila Kc167 cells
Reagent: long dsRNA against Drosophila genes, about 0.25 µg dsRNA per well
Time to read-out: about 6 days: 3 days knock-down, then 3 days with or without MMS
Challenge: methyl methanesulphonate 0.004% (w/v) for 3 days after knock-down
Read-out: 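ATP-dependent luminescence as a measure of live cells in MMS-exposed wells, quantile normalised within each plate, with replicate values also given as a mean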
Reading the numbers: mean viability with MMS: higher = more surviving cells after MMS

loco (locomotion defects) #1 scored mean viability with MMS 3.73e6.
loco (locomotion defects) #2 scored mean viability with MMS 3.48e6.
Silencing of CG11504 gave: mean viability with MMS 3.65e6.
Against His-Psi:CR31754 (pseudo), the entry reads mean viability with MMS 3.27e6.
Depletion of Sema1b (Semaphorin 1b) resulted in: mean viability with MMS 3.71e6.
Sf3b3 (Splicing factor 3b subunit 3) scored mean viability with MMS 3.05e6.
For CG7997, the values are mean viability with MMS 3.46e6.
With knock-down of CG32638, the screen gave mean viability with MMS 3.50e6.
With knock-down of Nup50 (Nucleoporin 50kD), the record shows mean viability with MMS 3.72e6.
Knock-down of CG9154 came out at: mean viability with MMS 3.73e6.
Against SNF4Agamma (SNF4/AMP-activated protein kinase gamma subunit) #1, the entry reads mean viability with MMS 3.57e6.
After knock-down of SNF4Agamma (SNF4/AMP-activated protein kinase gamma subunit) #2, the record shows mean viability with MMS 3.67e6.
SNF4Agamma (SNF4/AMP-activated protein kinase gamma subunit) #3 showed mean viability with MMS 3.40e6.
SNF4Agamma (SNF4/AMP-activated protein kinase gamma subunit) #4 scored mean viability with MMS 3.64e6.
Depletion of CG13983 came out at: mean viability with MMS 3.28e6.
obe (obelus) showed mean viability with MMS 3.36e6.
Silencing of jigr1 (jing interacting gene regulatory 1) #1 resulted in: mean viability with MMS 3.69e6.
Silencing of jigr1 (jing interacting gene regulatory 1) #2 came out at: mean viability with MMS 3.47e6.
Against jigr1 (jing interacting gene regulatory 1) #3, the values are mean viability with MMS 3.62e6.
Against CG5532, the values are mean viability with MMS 1.71e6.
For Cdk1 (Cyclin-dependent kinase 1), the values are mean viability with MMS 2.87e6.
Knock-down of CG32576 + UQCR-14 resulted in: mean viability with MMS 3.33e6.
After knock-down of park (parkin), the screen gave mean viability with MMS 3.47e6.
Depletion of dsx-c73A (doublesex cognate 73A) #1 gave: mean viability with MMS 3.49e6.
For dsx-c73A (doublesex cognate 73A) #2 the deposit lists mean viability with MMS 3.55e6.
dsx-c73A (doublesex cognate 73A) #3 gave mean viability with MMS 3.76e6.
Or43b (Odorant receptor 43b) scored mean viability with MMS 3.61e6.
Against fon (fondue), the entry reads mean viability with MMS 3.53e6.
Silencing of Kebab (Kinetochore and EB1 associated basic protein) came out at: mean viability with MMS 3.62e6.
PrBP (Prenyl-binding protein) gave mean viability with MMS 3.30e6.
CG43163 #1 scored mean viability with MMS 3.55e6.
After knock-down of CG43163 #2 the results were mean viability with MMS 3.69e6.
With knock-down of out (outsiders), the screen gave mean viability with MMS 3.83e6.
Ilp3 (Insulin-like peptide 3) showed mean viability with MMS 3.69e6.
After knock-down of Nha2 (Na[+]/H[+] hydrogen antiporter 2) #1 the results were mean viability with MMS 3.77e6.
Depletion of Nha2 (Na[+]/H[+] hydrogen antiporter 2) #2 resulted in: mean viability with MMS 3.23e6.
Depletion of Nha2 (Na[+]/H[+] hydrogen antiporter 2) #3 came out at: mean viability with MMS 3.77e6.
For CG30197, the values are mean viability with MMS 3.44e6.
RpS10b (Ribosomal protein S10b) gave mean viability with MMS 3.51e6.
After knock-down of Glt (Glutactin), the record shows mean viability with MMS 3.42e6.
Obp56f (Odorant-binding protein 56f) gave mean viability with MMS 3.49e6.
After knock-down of Paip1 (Poly(A) binding protein interacting protein 1) the results were mean viability with MMS 3.33e6.
After knock-down of CG33642, the record shows mean viability with MMS 3.69e6.
With knock-down of CG8202 the results were mean viability with MMS 3.70e6.
CG8500 showed mean viability with MMS 3.50e6.

As entered above.
Result of park (parkin) under “mean viability with MMS”: 3.47e6
Entry of CG7997 in “mean viability with MMS”: 3.46e6
dsx-c73A (doublesex cognate 73A) #2, mean viability with MMS: 3.55e6
Value for CG43163 #2 under “mean viability with MMS”: 3.69e6
Result for loco (locomotion defects) #2 under “mean viability with MMS”: 3.48e6
Obp56f (Odorant-binding protein 56f), mean viability with MMS: 3.49e6
